Assay results published in publication PMC9805129.
No constants are given. Whether binding was seen depends on the method and setting. Binding seen in cells or lysates may run through a third protein. Some results given as binding are weak or reduced against the parent protein; the word gives no strength.

Protein sequences, listed by entry. Tags and fused reporters are not part of them. Lines headed by an entry give the natural chain unless they say otherwise; changes in a name come on top. Residues count along the entry.
UniProt Q4LDE5, residues 18-3571: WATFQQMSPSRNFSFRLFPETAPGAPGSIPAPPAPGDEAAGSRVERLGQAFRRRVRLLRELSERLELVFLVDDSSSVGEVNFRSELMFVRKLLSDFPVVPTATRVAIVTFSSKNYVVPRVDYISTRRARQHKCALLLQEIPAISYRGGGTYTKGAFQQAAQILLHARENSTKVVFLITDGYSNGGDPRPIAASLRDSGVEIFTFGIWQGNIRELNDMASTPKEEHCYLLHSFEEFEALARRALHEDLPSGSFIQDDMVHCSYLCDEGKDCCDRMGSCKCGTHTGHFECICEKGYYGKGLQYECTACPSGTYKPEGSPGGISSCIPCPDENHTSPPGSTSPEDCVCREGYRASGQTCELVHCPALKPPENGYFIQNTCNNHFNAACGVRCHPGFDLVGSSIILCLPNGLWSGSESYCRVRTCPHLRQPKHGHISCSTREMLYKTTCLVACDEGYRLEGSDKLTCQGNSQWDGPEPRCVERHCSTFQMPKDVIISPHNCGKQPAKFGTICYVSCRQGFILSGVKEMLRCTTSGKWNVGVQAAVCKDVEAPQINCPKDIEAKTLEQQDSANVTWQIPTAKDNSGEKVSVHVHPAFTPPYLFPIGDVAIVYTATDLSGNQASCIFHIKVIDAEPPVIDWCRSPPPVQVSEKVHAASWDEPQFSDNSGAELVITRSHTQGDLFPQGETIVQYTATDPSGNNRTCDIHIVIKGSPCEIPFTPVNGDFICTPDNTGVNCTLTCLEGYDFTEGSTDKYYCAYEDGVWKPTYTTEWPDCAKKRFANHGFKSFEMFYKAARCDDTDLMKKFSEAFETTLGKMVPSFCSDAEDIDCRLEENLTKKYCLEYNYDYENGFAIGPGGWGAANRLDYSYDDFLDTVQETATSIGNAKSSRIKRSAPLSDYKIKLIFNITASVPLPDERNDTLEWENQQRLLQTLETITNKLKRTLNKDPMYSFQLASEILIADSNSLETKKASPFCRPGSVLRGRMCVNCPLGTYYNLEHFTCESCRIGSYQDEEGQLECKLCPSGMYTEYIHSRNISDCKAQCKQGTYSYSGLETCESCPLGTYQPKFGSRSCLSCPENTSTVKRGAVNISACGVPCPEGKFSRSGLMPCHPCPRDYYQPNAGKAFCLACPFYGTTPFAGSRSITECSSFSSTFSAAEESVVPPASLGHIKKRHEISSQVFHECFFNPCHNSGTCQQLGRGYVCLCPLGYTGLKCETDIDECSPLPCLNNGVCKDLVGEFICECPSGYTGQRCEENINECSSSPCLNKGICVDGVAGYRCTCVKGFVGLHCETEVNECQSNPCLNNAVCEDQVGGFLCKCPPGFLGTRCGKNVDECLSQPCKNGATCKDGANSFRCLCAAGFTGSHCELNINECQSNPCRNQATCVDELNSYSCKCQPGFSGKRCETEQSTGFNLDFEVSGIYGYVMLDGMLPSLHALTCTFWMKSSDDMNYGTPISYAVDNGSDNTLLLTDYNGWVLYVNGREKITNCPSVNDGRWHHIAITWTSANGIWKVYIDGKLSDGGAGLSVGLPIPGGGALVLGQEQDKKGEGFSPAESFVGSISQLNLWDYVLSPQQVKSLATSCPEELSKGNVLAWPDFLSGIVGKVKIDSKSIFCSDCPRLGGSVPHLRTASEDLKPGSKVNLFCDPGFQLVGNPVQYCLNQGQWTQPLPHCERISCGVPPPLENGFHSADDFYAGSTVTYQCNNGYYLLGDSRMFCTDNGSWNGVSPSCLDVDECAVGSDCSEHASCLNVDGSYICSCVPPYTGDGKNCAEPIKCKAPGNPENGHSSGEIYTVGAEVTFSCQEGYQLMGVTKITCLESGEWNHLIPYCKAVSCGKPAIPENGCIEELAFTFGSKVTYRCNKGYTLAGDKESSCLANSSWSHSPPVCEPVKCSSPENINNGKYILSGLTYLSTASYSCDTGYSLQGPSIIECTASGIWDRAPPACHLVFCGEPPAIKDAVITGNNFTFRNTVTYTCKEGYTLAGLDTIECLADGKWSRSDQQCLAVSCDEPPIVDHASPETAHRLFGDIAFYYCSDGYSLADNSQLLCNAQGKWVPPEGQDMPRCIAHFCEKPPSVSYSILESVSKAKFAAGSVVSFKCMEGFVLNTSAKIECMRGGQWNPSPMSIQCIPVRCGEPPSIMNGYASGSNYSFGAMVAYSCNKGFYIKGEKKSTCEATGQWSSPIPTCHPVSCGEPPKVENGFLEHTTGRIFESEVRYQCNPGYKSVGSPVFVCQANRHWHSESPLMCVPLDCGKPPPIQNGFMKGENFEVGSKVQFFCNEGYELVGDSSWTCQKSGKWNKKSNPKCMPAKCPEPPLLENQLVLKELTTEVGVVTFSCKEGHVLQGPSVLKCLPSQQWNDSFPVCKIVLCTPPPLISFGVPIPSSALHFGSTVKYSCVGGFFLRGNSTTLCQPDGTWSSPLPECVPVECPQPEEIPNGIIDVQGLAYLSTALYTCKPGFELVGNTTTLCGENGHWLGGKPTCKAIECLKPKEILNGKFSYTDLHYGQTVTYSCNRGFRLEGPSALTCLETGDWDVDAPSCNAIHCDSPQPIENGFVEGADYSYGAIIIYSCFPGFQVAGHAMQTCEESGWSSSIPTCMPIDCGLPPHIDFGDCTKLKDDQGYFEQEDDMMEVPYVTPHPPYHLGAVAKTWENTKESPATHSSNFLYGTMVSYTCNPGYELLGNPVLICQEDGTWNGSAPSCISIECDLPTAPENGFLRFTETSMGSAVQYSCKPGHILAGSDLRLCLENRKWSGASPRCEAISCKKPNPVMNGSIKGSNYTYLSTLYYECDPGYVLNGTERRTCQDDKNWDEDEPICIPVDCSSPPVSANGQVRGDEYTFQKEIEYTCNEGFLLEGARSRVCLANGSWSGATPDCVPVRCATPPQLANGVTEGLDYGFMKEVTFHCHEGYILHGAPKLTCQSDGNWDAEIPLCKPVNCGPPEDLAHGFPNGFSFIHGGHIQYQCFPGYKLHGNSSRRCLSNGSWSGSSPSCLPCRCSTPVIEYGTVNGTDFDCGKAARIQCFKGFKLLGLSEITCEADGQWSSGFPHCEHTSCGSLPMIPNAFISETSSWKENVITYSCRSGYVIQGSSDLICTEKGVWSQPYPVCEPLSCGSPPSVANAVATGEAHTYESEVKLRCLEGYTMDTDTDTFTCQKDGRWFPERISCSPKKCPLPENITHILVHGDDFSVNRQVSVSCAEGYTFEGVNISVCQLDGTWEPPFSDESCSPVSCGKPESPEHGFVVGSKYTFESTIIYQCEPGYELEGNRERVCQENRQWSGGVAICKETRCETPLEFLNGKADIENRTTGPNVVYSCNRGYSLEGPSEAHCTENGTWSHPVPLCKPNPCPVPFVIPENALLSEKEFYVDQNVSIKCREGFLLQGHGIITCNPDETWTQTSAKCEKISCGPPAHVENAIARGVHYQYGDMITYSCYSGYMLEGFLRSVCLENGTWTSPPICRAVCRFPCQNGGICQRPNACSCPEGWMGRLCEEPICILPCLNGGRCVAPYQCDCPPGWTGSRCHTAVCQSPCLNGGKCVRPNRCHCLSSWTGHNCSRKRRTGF
UniProt P13612: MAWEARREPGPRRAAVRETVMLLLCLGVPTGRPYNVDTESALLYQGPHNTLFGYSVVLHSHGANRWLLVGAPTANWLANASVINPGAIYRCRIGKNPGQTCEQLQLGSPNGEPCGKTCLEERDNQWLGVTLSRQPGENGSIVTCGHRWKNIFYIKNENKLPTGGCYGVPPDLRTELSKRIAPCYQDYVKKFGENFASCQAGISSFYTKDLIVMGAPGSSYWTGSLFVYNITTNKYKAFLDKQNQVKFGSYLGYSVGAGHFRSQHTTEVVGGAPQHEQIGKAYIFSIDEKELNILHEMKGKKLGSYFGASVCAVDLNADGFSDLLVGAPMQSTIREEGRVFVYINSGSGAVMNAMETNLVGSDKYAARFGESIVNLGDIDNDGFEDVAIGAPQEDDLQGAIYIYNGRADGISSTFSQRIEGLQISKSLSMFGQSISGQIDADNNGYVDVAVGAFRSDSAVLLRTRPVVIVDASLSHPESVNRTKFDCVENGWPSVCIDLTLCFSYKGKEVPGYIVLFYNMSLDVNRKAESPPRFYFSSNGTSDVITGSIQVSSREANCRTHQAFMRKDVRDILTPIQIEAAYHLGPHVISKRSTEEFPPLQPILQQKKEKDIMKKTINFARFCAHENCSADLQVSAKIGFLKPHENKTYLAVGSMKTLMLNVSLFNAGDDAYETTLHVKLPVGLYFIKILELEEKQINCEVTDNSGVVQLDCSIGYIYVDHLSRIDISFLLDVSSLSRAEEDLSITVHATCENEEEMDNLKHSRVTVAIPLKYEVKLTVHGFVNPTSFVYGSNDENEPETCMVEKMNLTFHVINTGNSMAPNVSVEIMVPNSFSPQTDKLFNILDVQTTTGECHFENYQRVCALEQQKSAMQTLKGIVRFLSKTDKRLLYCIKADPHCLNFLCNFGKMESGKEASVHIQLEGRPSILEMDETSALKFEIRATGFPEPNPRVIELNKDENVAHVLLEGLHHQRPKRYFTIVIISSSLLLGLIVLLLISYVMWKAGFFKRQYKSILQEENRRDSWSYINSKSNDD
UniProt Q13797: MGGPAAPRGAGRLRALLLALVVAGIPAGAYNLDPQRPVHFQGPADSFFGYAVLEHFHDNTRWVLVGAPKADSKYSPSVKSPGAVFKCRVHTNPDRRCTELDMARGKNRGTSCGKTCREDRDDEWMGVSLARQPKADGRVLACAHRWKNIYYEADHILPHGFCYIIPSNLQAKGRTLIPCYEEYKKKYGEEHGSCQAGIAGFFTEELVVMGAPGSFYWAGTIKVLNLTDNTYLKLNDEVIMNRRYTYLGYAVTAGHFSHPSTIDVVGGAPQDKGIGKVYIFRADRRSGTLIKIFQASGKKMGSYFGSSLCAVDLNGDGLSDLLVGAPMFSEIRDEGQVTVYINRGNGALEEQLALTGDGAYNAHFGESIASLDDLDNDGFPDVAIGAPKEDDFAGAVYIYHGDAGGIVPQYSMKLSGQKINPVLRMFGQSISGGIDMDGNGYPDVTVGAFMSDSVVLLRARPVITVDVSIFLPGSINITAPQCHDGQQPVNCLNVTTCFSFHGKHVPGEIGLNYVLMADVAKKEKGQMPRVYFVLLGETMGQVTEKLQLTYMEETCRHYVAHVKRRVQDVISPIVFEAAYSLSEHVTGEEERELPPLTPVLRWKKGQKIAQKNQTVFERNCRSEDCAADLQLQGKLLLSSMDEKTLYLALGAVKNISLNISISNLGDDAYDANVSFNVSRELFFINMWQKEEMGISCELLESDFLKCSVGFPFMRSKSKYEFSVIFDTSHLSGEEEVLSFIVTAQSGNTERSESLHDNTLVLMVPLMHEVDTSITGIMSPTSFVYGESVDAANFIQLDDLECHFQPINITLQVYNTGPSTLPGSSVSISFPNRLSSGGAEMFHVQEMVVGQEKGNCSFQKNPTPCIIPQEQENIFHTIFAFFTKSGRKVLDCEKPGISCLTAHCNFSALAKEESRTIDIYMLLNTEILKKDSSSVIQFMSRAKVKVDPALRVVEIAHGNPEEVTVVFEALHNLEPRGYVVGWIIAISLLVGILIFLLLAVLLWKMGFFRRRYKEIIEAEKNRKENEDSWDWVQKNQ

Biological target: Sushi, von Willebrand factor type A, EGF and pentraxin domain-containing protein 1 (SVEP1), FLAG-tagged (UniProt Q4LDE5)
Assay: co-IP; anti-FLAG agarose beads with cleared lysates of transfected HEK293A cells (50 mM Tris-HCl, 150 mM NaCl, 1 mM EDTA, 1% Triton X-100), 90 min at 4°C; blots with anti-integrin α4 or anti-GFP

| binding | Substance |
| --- | --- |
| binds | integrin α4β1 (from UniProt P13612 34-1032; P05556 21-798) (receptor) |
| binds | integrin α9β1, α9 subunit GFP-tagged (from UniProt Q13797 30-1035; P05556 21-798) (receptor) |
